From patent publication US20150157647A1, “METHODS AND CO[…] TO ACUTE RESPIRATORY DISTRESS SYNDROME” (priority 2013, published 2015)

Assay: Serum MBG in rat model of ARDS
Type: in vivo
Settings: for Rat serum MBG: individual animals; for Rat serum MBG, mean: mean of 5
[1] = rats with induced ARDS-like syndrome

## C[C@]12CC[C@H](O)C[C@@]1(O)CC[C@@H]1[C@@H]2CC[C@]2(C)[C@@H](c3ccc(=O)oc3)C[C@H]3O[C@]132 [MBG, marinobufagenin]
Control (sham) rats
  Rat serum MBG: 8.5 pg/mL and 10.1 pg/mL and 10.9 pg/mL and 10.0 pg/mL and 7.5 pg/mL
  Rat serum MBG, mean: 9.4 pg/mL
[1]
  Rat serum MBG: 40.2 pg/mL and 46.7 pg/mL and 26.7 pg/mL and 23.2 pg/mL and 36.4 pg/mL
  Rat serum MBG, mean: 34.6 pg/mL

Where “and” joins values, the source holds several entries; their conditions need not be identical. Identical values can stand only once.
